# The supplement of paper PMC4604168 (melanoma cell lines)
# The other results are listed elsewhere or left out. Repeats are few or missing, and single values can be far off.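 The apoptosis fraction was the count of cleaved-PARP antibody-stained nuclei relative to all DNA-stained nuclei, imaged in 1,536-well plates. Screening doses were set so most cells survived, and baseline and induced cleaved-PARP levels vary greatly across cell lines.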
# System: WM3526
# Test: cleaved PARP positive nuclei fraction relative to DMSO control; melanoma cells; higher = more apoptosis
# Details: library dose: low library concentration; 72 h
row,SMILES,cleaved PARP positive nuclei fraction
1,"COc1ccc(C2=N[C@@H](c3ccc(Cl)cc3)[C@@H](c3ccc(Cl)cc3)N2C(=O)N2CCNC(=O)C2)c(OC(C)C)c1 [Nutlin-3] + COc1ccc2c(c1)CCC1C2CCC2(C)C(NCCCCCCN3C(=O)C=CC3=O)CCC12 [U73122] (first compound 0.1 µM, partner dose 0.4 µM)",85.1%
2,"CS(=O)(=O)c1ccc(C(=O)Nc2ccc(Cl)c(-c3ccccn3)c2)c(Cl)c1 [vismodegib] + Cc1cc(N2CCOCC2)cc2[nH]c(-c3c(NC[C@@H](O)c4cccc(Cl)c4)cc[nH]c3=O)nc12 [BMS536924] (first compound 1 µM, partner dose 0.2 µM)",59.4%
3,"CC1(C)CCC(c2ccc(Cl)cc2)=C(CN2CCN(c3ccc(C(=O)NS(=O)(=O)c4ccc(N[C@H](CCN5CCOCC5)CSc5ccccc5)c(S(=O)(=O)C(F)(F)F)c4)cc3)CC2)C1 + Cc1cc(N2CCOCC2)cc2[nH]c(-c3c(NC[C@@H](O)c4cccc(Cl)c4)cc[nH]c3=O)nc12 [BMS536924] (first compound 0.4 µM, partner dose 0.2 µM)",35.8%
4,"CC(=O)O[C@@]12CO[C@@H]1C[C@H](O)[C@@]1(C)C(=O)[C@H](O)C3=C(C)[C@@H](OC(=O)[C@H](O)[C@@H](NC(=O)OC(C)(C)C)c4ccccc4)C[C@@](O)([C@@H](OC(=O)c4ccccc4)[C@H]21)C3(C)C [Docetaxel] + Cc1ccc(NC(=O)c2cccc(N(C)C)c2)cc1NC(=O)c1ccc(O)cc1 [ZM336372] (first compound 0.0001 µM, partner dose 2 µM)",143%
